Like-named read-outs stand apart in the source and are kept apart here. These are yes or no findings as the source states them, for the method shown. In cells and extracts the contact can be indirect. Some binding calls cover weakened binding; strength is not graded here. Sequences can lack the tags named with a protein. One block for each molecule: values may come before it.
Tests used:
[1] = molecular target: T1, GST–Id2 (expressed in mammalian cells) (UniProt Q02363); test: pull-down; lysates of co-transfected cells (HEK293T where named) mixed with glutathione–sepharose beads, 3 h at 4 °C; 50 mM Tris-Cl pH 7.4, 150 mM NaCl, 1 mM EDTA, 0.5% Triton X-100; immunoblotting; in some panels with HA–Akt WT or CA Akt, or Akt inhibitor VIII (1 μM, 6 h)
T1 sequence: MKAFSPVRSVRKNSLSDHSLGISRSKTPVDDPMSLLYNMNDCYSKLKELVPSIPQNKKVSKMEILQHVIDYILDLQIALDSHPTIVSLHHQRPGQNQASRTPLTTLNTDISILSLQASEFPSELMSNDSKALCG

By UniProt entry, the sequences of proteins in these tests, tags left out.
UniProt Q5SQI0: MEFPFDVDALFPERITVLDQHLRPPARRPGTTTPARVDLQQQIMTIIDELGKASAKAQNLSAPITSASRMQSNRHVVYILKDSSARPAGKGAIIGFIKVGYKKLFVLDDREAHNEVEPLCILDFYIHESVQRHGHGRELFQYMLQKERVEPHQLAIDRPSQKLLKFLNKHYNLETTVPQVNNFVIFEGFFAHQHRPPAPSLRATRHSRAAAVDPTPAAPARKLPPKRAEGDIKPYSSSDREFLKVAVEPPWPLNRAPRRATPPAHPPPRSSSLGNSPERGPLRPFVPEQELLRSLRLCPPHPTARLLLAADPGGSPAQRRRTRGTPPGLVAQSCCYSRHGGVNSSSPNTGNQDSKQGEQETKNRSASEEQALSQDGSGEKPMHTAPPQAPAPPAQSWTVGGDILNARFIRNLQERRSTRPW
UniProt Q9UBN7: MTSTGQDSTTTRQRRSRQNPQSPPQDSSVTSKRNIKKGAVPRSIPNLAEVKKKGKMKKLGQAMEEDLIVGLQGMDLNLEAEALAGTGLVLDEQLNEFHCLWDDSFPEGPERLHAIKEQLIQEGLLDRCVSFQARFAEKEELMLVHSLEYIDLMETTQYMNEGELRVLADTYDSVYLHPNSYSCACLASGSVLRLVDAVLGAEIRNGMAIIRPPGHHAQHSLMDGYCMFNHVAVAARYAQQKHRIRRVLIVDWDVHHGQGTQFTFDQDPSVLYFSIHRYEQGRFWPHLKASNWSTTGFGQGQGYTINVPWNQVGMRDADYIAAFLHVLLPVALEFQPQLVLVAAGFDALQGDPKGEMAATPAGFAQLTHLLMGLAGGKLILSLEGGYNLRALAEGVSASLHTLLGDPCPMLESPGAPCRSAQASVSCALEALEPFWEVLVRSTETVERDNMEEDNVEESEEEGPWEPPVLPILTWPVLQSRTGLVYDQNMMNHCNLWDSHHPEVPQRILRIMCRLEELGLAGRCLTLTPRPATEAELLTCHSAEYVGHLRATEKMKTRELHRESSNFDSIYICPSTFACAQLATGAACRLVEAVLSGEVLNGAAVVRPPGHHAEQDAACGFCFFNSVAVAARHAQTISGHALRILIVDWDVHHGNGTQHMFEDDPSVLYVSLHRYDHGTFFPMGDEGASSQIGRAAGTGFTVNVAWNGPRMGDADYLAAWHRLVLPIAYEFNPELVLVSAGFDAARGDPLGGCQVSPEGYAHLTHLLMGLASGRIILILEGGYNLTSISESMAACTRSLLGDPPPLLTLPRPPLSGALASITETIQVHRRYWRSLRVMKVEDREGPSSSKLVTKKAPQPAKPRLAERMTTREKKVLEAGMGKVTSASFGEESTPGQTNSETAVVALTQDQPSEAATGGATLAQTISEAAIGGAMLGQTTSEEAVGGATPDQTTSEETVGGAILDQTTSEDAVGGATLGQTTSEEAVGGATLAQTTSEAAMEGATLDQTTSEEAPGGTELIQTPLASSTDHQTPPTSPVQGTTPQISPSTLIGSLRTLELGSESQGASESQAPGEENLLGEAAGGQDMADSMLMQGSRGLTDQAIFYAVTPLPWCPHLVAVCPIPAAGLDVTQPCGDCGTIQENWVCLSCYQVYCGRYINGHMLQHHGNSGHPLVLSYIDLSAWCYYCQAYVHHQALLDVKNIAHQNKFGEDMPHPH

[2] = molecular target: T1, GST–Id2 (expressed in mammalian cells); test: as above; remark: listed apart in the source

- binding [1]: binds weakly
Molecule: αTAT (from UniProt Q5SQI0 1-421) (enzyme)

- binding [2]: binds
B2: GFP–Sirt2 full length (enzyme, UniProt Q8IXJ6 1-389)
chain: MAEPDPSHPLETQAGKVQEAQDSDSDSEGGAAGGEADMDFLRNLFSQTLSLGSQKERLLDELTLEGVARYMQSERCRRVICLVGAGISTSAGIPDFRSPSTGLYDNLEKYHLPYPEAIFEISYFKKHPEPFFALAKELYPGQFKPTICHYFMRLLKDKGLLLRCYTQNIDTLERIAGLEQEDLVEAHGTFYTSHCVSASCRHEYPLSWMKEKIFSEVTPKCEDCQSLVKPDIVFFGESLPARFFSCMQSDFLKVDLLLVMGTSLQVQPFASLISKAPLSTPRLLINKEKAGQSDPFLGMIMGLGGGMDFDSKKAYRDVAWLGECDQGCLALAELLGWKKELEDLVRREHASIDAQSGAGVPNPSTSASPKKSPPPAKDEARTTEREKPQ

Continued, molecule first:

Molecule: HDAC6 (from UniProt Q9UBN7 1-1215) (enzyme)
- binding [1]: no binding

B1: Sirt2 (construct of Fig. 4A) (enzyme, UniProt Q8IXJ6 1-389)
chain: B2 chain
- binding [2]: binds
